Results deposited as PubChem BioAssay AID1224828 (NIAID, 2016)

Assay: 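Regulators linking TLR4 signalling to p65 nuclear translocation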 (primary screen)
Cell system: mouse RAW264.7 G9 macrophage reporter cells (GFP-p65, Tnf promoter-mCherry)
Knock-down reagent: siRNA pool against mouse genes, 100 nM
Duration: 2 days siRNA transfection, then 40 min LPS before fixation
Conditions: LPS (Salmonella minnesota R595) at 10 ng/ml
Detection: 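Microscopy ratio of nuclear to perinuclear-ring GFP-p65 signal, scaled to the plate median; gene score is the average of two replicate robust z-scores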
Direction: p65 translocation robust z-score: higher = more nuclear NF-kappaB p65 after LPS than the plate median; nuclear/cytoplasmic p65 ratio: higher = more nuclear NF-kappaB p65
Active means: 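Active if robust z is above 3.3 (negative regulators) or below -1.56, the Tlr4 control median (positive regulators); activity score 50 or more; control wells not called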
Calls: active = hit (p65 shift raised or lowered); inactive = no clear change
Here is a random part of about 17,000 deposited reagents. 762 of them (4.5%) count as active. 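Active calls include both raised and lowered p65 entry, mostly lowered; wells with fewer than 50 cells lack a z-score.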 Raw values vary from plate to plate and are shown uncorrected. Reagents against one gene are numbered here.

{"Target gene": "Or9m1", "reagent no.": 1, "p65 translocation robust z-score": -2.32, "nuclear/cytoplasmic p65 ratio, rep 1": 1.37, "nuclear/cytoplasmic p65 ratio, rep 2": 1.17, "low cell count flag": "enough cells to score", "Outcome": "active"}
{"Target gene": "Fn1", "reagent no.": 1, "p65 translocation robust z-score": -0.53, "nuclear/cytoplasmic p65 ratio, rep 1": 1.33, "nuclear/cytoplasmic p65 ratio, rep 2": 1.34, "low cell count flag": "enough cells to score", "Outcome": "inactive"}
{"Target gene": "Gabrg3", "reagent no.": 1, "p65 translocation robust z-score": 1.78, "nuclear/cytoplasmic p65 ratio, rep 1": 1.69, "nuclear/cytoplasmic p65 ratio, rep 2": 1.58, "low cell count flag": "enough cells to score", "Outcome": "inactive"}
{"Target gene": "Gabrg3", "reagent no.": 2, "p65 translocation robust z-score": -0.27, "nuclear/cytoplasmic p65 ratio, rep 1": 1.55, "nuclear/cytoplasmic p65 ratio, rep 2": 1.49, "low cell count flag": "enough cells to score", "Outcome": "inactive"}
{"Target gene": "Lkaaear1", "reagent no.": 1, "p65 translocation robust z-score": 1.55, "nuclear/cytoplasmic p65 ratio, rep 1": 1.49, "nuclear/cytoplasmic p65 ratio, rep 2": 1.49, "low cell count flag": "enough cells to score", "Outcome": "inactive"}
{"Target gene": "Chchd2", "reagent no.": 1, "p65 translocation robust z-score": -1.48, "nuclear/cytoplasmic p65 ratio, rep 1": 1.4, "nuclear/cytoplasmic p65 ratio, rep 2": 1.51, "low cell count flag": "enough cells to score", "Outcome": "inactive"}
{"Target gene": "Ehbp1", "reagent no.": 1, "p65 translocation robust z-score": -0.46, "nuclear/cytoplasmic p65 ratio, rep 1": 1.52, "nuclear/cytoplasmic p65 ratio, rep 2": 1.62, "low cell count flag": "enough cells to score", "Outcome": "inactive"}
{"Target gene": "Garre1", "reagent no.": 1, "p65 translocation robust z-score": -0.04, "nuclear/cytoplasmic p65 ratio, rep 1": 1.26, "nuclear/cytoplasmic p65 ratio, rep 2": 1.3, "low cell count flag": "enough cells to score", "Outcome": "inactive"}
{"Target gene": "Fam135a", "reagent no.": 1, "p65 translocation robust z-score": 0.83, "nuclear/cytoplasmic p65 ratio, rep 1": 1.31, "nuclear/cytoplasmic p65 ratio, rep 2": 1.45, "low cell count flag": "enough cells to score", "Outcome": "inactive"}

Records listed so far whose gene name begins with F or f:
{"Target gene": "Fn1", "reagent no.": 1, "p65 translocation robust z-score": -0.53, "nuclear/cytoplasmic p65 ratio, rep 1": 1.33, "nuclear/cytoplasmic p65 ratio, rep 2": 1.34, "low cell count flag": "enough cells to score", "Outcome": "inactive"}
{"Target gene": "Fam135a", "reagent no.": 1, "p65 translocation robust z-score": 0.83, "nuclear/cytoplasmic p65 ratio, rep 1": 1.31, "nuclear/cytoplasmic p65 ratio, rep 2": 1.45, "low cell count flag": "enough cells to score", "Outcome": "inactive"}

Additional records follow:
{"Target gene": "Nubp1", "reagent no.": 1, "nuclear/cytoplasmic p65 ratio, rep 1": 1.22, "nuclear/cytoplasmic p65 ratio, rep 2": 1.24, "low cell count flag": "fewer than 50 cells per well; well left out of scoring", "Outcome": "inactive"}
{"Target gene": "Zup1", "reagent no.": 1, "p65 translocation robust z-score": -0.4, "nuclear/cytoplasmic p65 ratio, rep 1": 1.39, "nuclear/cytoplasmic p65 ratio, rep 2": 1.37, "low cell count flag": "enough cells to score", "Outcome": "inactive"}
{"Target gene": "Abcb11", "reagent no.": 1, "p65 translocation robust z-score": -1.05, "nuclear/cytoplasmic p65 ratio, rep 1": 1.46, "nuclear/cytoplasmic p65 ratio, rep 2": 1.45, "low cell count flag": "enough cells to score", "Outcome": "inactive"}
{"Target gene": "Cxcr3", "reagent no.": 1, "p65 translocation robust z-score": 1.34, "nuclear/cytoplasmic p65 ratio, rep 1": 1.63, "nuclear/cytoplasmic p65 ratio, rep 2": 1.85, "low cell count flag": "enough cells to score", "Outcome": "inactive"}
{"Target gene": "Cpd", "reagent no.": 1, "p65 translocation robust z-score": 0.04, "nuclear/cytoplasmic p65 ratio, rep 1": 1.43, "nuclear/cytoplasmic p65 ratio, rep 2": 1.43, "low cell count flag": "enough cells to score", "Outcome": "inactive"}
